Binding data for eight molecules are collected here from PMC7367184.

Protein sequences, listed by entry. Tags and fused reporters are not part of them.
UniProt P50750: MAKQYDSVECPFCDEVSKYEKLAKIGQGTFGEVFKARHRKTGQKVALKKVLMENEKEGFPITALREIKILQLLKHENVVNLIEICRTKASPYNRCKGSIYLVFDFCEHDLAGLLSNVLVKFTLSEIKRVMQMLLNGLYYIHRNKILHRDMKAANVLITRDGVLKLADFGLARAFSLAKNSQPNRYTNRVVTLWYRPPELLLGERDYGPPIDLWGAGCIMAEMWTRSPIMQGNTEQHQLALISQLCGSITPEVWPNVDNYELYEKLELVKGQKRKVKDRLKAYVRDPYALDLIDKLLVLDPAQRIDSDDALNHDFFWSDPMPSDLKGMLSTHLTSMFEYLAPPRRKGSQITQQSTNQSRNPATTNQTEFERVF
UniProt O00472: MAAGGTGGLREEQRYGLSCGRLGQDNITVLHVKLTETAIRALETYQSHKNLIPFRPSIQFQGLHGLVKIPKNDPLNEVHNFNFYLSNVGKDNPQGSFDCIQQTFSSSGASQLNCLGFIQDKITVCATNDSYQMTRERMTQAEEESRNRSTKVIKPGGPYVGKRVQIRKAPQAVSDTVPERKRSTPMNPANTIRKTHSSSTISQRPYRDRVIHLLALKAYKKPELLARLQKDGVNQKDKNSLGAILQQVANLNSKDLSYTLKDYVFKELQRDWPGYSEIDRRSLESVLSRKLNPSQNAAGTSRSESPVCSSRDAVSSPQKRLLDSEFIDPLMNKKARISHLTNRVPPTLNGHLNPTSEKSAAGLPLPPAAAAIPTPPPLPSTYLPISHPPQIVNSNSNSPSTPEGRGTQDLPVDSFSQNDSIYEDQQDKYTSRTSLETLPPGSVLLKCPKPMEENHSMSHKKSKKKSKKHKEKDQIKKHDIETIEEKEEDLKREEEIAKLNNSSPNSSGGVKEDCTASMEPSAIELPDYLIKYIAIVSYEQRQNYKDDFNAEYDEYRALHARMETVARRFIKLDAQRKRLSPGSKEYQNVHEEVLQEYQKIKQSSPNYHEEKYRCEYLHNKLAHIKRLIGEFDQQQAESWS
UniProt P42568: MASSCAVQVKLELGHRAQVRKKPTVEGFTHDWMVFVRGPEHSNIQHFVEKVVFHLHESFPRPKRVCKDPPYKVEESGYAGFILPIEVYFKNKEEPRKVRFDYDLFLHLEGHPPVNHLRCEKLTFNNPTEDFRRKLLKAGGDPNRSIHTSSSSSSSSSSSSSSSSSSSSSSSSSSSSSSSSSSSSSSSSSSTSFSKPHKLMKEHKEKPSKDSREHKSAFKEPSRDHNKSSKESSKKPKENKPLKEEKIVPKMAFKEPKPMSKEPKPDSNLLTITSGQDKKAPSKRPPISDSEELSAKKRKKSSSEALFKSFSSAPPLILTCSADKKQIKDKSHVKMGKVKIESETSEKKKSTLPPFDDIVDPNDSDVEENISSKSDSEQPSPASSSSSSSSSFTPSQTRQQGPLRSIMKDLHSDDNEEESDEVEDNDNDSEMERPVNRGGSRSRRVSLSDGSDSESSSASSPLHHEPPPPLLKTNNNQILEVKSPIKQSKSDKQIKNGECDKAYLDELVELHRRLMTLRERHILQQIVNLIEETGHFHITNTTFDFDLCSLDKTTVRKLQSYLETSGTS

The target in assay [1] is T1, Flag-tagged Siah1 C75S (catalytically inactive mutant) (UniProt Q8IUQ4).
T1 sequence: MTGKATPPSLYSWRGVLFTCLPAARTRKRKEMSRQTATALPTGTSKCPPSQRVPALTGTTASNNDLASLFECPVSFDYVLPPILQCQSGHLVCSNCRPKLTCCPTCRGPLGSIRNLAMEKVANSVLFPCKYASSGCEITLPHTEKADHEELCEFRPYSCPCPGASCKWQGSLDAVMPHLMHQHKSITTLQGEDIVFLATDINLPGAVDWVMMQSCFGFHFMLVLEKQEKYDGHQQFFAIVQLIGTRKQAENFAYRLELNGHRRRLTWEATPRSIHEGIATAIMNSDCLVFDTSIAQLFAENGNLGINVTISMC
Put plainly: co-IP; anti-Flag agarose IP of whole cell extracts of co-transfected 293T cells, 48 h after transfection; washes with buffer D with 0.3 M KCl, then 0.1 M KCl; Western blot; rising amounts of HA-HCF1 or HA-HCF2 in Figures 4A and 4B. Background: Immunoblotting shows a protein as a band on a membrane.

The target in assay [2] is CDK9 (endogenous) (human (endogenous; cell line of Figure 2E not named)) (UniProt P50750). Put plainly: co-IP; IP of nuclear extracts with anti-CDK9 polyclonal antibodies or rabbit total IgG; cells expressing a scrambled sequence, shHCF1 or shHCF2; Western blot.
For assay [3], the target named is T1, Flag-tagged Siah1 C75S (catalytically inactive mutant). In words: pull-down; in vitro competition: purified HA-HCF1/2 and GST-ELL2 on immobilized F-Siah1C75S (Supplemental Figure S2; methods not shown); both purified.
Assay [4] addresses T2, HA-HCF2 (host cell factor 2) (UniProt Q9Y5Z7).
T2 sequence: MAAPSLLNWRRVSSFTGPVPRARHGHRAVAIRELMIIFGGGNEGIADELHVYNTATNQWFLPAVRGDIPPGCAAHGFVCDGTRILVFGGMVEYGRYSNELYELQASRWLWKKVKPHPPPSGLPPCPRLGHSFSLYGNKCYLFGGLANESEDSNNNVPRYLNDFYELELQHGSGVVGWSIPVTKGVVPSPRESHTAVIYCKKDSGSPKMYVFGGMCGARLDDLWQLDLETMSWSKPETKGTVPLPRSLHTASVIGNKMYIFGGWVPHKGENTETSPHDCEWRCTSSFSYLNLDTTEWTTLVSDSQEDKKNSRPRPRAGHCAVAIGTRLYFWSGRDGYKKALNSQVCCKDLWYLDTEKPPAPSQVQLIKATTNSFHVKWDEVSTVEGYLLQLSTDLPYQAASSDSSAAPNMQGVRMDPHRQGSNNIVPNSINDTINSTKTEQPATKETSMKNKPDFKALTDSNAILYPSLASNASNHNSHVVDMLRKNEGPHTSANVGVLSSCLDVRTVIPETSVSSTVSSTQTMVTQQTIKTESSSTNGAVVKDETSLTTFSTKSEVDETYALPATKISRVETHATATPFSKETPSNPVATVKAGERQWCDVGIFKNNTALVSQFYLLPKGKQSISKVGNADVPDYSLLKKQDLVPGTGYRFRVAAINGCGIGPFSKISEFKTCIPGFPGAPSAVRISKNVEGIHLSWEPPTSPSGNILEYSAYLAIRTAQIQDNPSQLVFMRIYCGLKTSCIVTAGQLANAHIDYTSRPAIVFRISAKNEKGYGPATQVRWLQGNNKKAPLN
In words: co-IP; anti-HA agarose IP of whole cell extracts of 293T cells transfected with F-Siah1 proteins and HA-HCF1 or HA-HCF2; washes with buffer D with 0.3 M KCl, then 0.1 M KCl; Western blot.

These are yes or no findings as the source states them, for the method shown. For some of these results: Binding seen in cells or lysates may run through a third protein. Some binding calls cover weakened binding; strength is not graded here. For some of these results: Sequences can lack the tags named with a protein.

Turning to “ELL2 (co-expressed in 293T cells) (from UniProt O00472 1-640)”, in assay [1], the binding result is on record as “binds”. “ELL2 (endogenous) (from UniProt O00472 1-640)”: the binding result in assay [2] is recorded as “binds”. GST-ELL2 (from UniProt O00472 1-640): in assay [3], the binding result was “binds”. Take “AF9 (endogenous) (from UniProt P42568 1-568)”: the binding result in assay [2] is “binds”.

B1: HA-HCF2 (host cell factor 2) (protein, UniProt Q9Y5Z7 1-792)
chain: T2 sequence
For B1, the binding entry in assay [3] and in assay [1] was “binds” throughout.

B2: Flag-tagged Siah1 C75S (catalytically inactive mutant) (enzyme, UniProt Q8IUQ4-2 1-313)
chain: T1 sequence
Turning to B2, the binding entry in assay [4] and in assay [1] was “binds” each time.

B3: AFF1 (endogenous) (protein, UniProt P51825 1-1210)
chain: MAAQSSLYNDDRNLLRIREKERRNQEAHQEKEAFPEKIPLFGEPYKTAKGDELSSRIQNMLGNYEEVKEFLSTKSHTHRLDASENRLGKPKYPLIPDKGSSIPSSSFHTSVHHQSIHTPASGPLSVGNISHNPKMAQPRTEPMPSLHAKSCGPPDSQHLTQDRLGQEGFGSSHHKKGDRRADGDHCASVTDSAPERELSPLISLPSPVPPLSPIHSNQQTLPRTQGSSKVHGSSNNSKGYCPAKSPKDLAVKVHDKETPQDSLVAPAQPPSQTFPPPSLPSKSVAMQQKPTAYVRPMDGQDQAPSESPELKPLPEDYRQQTFEKTDLKVPAKAKLTKLKMPSQSVEQTYSNEVHCVEEILKEMTHSWPPPLTAIHTPSTAEPSKFPFPTKDSQHVSSVTQNQKQYDTSSKTHSNSQQGTSSMLEDDLQLSDSEDSDSEQTPEKPPSSSAPPSAPQSLPEPVASAHSSSAESESTSDSDSSSDSESESSSSDSEENEPLETPAPEPEPPTTNKWQLDNWLTKVSQPAAPPEGPRSTEPPRRHPESKGSSDSATSQEHSESKDPPPKSSSKAPRAPPEAPHPGKRSCQKSPAQQEPPQRQTVGTKQPKKPVKASARAGSRTSLQGEREPGLLPYGSRDQTSKDKPKVKTKGRPRAAASNEPKPAVPPSSEKKKHKSSLPAPSKALSGPEPAKDNVEDRTPEHFALVPLTESQGPPHSGSGSRTSGCRQAVVVQEDSRKDRLPLPLRDTKLLSPLRDTPPPQSLMVKITLDLLSRIPQPPGKGSRQRKAEDKQPPAGKKHSSEKRSSDSSSKLAKKRKGEAERDCDNKKIRLEKEIKSQSSSSSSSHKESSKTKPSRPSSQSSKKEMLPPPPVSSSSQKPAKPALKRSRREADTCGQDPPKSASSTKSNHKDSSIPKQRRVEGKGSRSSSEHKGSSGDTANPFPVPSLPNGNSKPGKPQVKFDKQQADLHMREAKKMKQKAELMTDRVGKAFKYLEAVLSFIECGIATESESQSSKSAYSVYSETVDLIKFIMSLKSFSDATAPTQEKIFAVLCMRCQSILNMAMFRCKKDIAIKYSRTLNKHFESSSKVAQAPSPCIASTGTPSPLSPMPSPASSVGSQSSAGSVGSSGVAATISTPVTIQNMTSSYVTITSHVLTAFDLWEQAEALTRKNKEFFARLSTNVCTLALNSSLVDLVHYTRQGFQQLQELTKTP
In the case of B3, the binding result in assay [2] is given as “binds”.

B4: AFF4 (endogenous) (protein, UniProt Q9UHB7 1-1163)
chain: MNREDRNVLRMKERERRNQEIQQGEDAFPPSSPLFAEPYKVTSKEDKLSSRIQSMLGNYDEMKDFIGDRSIPKLVAIPKPTVPPSADEKSNPNFFEQRHGGSHQSSKWTPVGPAPSTSQSQKRSSGLQSGHSSQRTSAGSSSGTNSSGQRHDRESYNNSGSSSRKKGQHGSEHSKSRSSSPGKPQAVSSLNSSHSRSHGNDHHSKEHQRSKSPRDPDANWDSPSRVPFSSGQHSTQSFPPSLMSKSNSMLQKPTAYVRPMDGQESMEPKLSSEHYSSQSHGNSMTELKPSSKAHLTKLKIPSQPLDASASGDVSCVDEILKEMTHSWPPPLTAIHTPCKTEPSKFPFPTKESQQSNFGTGEQKRYNPSKTSNGHQSKSMLKDDLKLSSSEDSDGEQDCDKTMPRSTPGSNSEPSHHNSEGADNSRDDSSSHSGSESSSGSDSESESSSSDSEANEPSQSASPEPEPPPTNKWQLDNWLNKVNPHKVSPASSVDSNIPSSQGYKKEGREQGTGNSYTDTSGPKETSSATPGRDSKTIQKGSESGRGRQKSPAQSDSTTQRRTVGKKQPKKAEKAAAEEPRGGLKIESETPVDLASSMPSSRHKAATKGSRKPNIKKESKSSPRPTAEKKKYKSTSKSSQKSREIIETDTSSSDSDESESLPPSSQTPKYPESNRTPVKPSSVEEEDSFFRQRMFSPMEEKELLSPLSEPDDRYPLIVKIDLNLLTRIPGKPYKETEPPKGEKKNVPEKHTREAQKQASEKVSNKGKRKHKNEDDNRASESKKPKTEDKNSAGHKPSSNRESSKQSAAKEKDLLPSPAGPVPSKDPKTEHGSRKRTISQSSSLKSSSNSNKETSGSSKNSSSTSKQKKTEGKTSSSSKEVKEKAPSSSSNCPPSAPTLDSSKPRRTKLVFDDRNYSADHYLQEAKKLKHNADALSDRFEKAVYYLDAVVSFIECGNALEKNAQESKSPFPMYSETVDLIKYTMKLKNYLAPDATAADKRLTVLCLRCESLLYLRLFKLKKENALKYSKTLTEHLKNSYNNSQAPSPGLGSKAVGMPSPVSPKLSPGNSGNYSSGASSASASGSSVTIPQKIHQMAASYVQVTSNFLYATEIWDQAEQLSKEQKEFFAELDKVMGPLIFNASIMTDLVRYTRQGLHWLRQDAKLIS
For the molecule B4, the binding result in assay [2] is recorded as “binds”.
